Experimental data as given in the supplement of paper PMC10994270.
Some of the results follow.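 How the source made its calls: active = probability of classifying as wild-type above 0.505; inactive = 0.505 or below.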 Single values are uncertain, as repeats are few or missing.

Test system: SORL1-/- neural progenitor cells (hiPSC WTSIi004-B derived)
Test: probability of classification as wild-type phenotype (neural network, relative to DMSO-treated WT vs SORL1-/- controls) (fraction); higher = more similar to wild-type morphology (phenotypic rescue)
Details: 24 h
[1] = 100 nM, SORL1-/- sub-clone: XE10
[2] = 300 nM, SORL1-/- sub-clone: WB8
[3] = 1000 nM, SORL1-/- sub-clone: WB8
[4] = 1000 nM, SORL1-/- sub-clone: XE10
[5] = 100 nM, SORL1-/- sub-clone: WB8
[6] = 300 nM, SORL1-/- sub-clone: WC7
[7] = 300 nM, SORL1-/- sub-clone: XE10
[8] = 1000 nM, SORL1-/- sub-clone: WC7
[9] = 100 nM, SORL1-/- sub-clone: WC7

Measured: probability

C=CC(=O)Nc1cccc(Oc2nc(Nc3ccc(N4CCN(C)CC4)cc3)nc3ccsc23)c1 [Olmutinib]
active: [1] 0.659 | [2] 0.617 | [3] 0.999 | [4] 0.741

CCN(CC)C(=S)SSC(=S)N(CC)CC [Disulfiram]
active: [5] 0.743 | [2] 0.834 | [6] 0.962 | [7] 0.732 | [3] 0.539

COc1cccc2c1C(=O)c1c(O)c3c(c(O)c1C2=O)C[C@@](O)(C(=O)CO)C[C@@H]3O[C@H]1C[C@H](N)[C@@H](O)[C@H](C)O1.Cl [Epirubicin hydrochloride]
active: [5] 0.673 | [1] 0.517 | [6] 0.996 | [7] 0.674 | [3] 0.98 | [8] 0.977 | [4] 0.971

CC[C@@]1(O)C(=O)OCc2c1cc1n(c2=O)Cc2cc3cc(O)ccc3nc2-1 [10-Hydroxycamptothecin]
active: [5] 0.758 | [9] 0.882 | [1] 0.692 | [2] 0.999 | [7] 0.8 | [3] 0.998 | [8] 1

COc1cc([C@@H]2c3cc4c(cc3[C@@H](O[C@@H]3O[C@@H]5CO[C@@H](C)O[C@H]5[C@H](O)[C@H]3O)[C@H]3COC(=O)[C@H]23)OCO4)cc(OC)c1O [Etoposide]
active: [5] 0.752 | [9] 0.683 | [2] 1 | [3] 0.891 | [4] 0.71

CC[C@@H]1C(=O)N(C)c2cnc(Nc3ccc(C(=O)N[C@H]4CC[C@H](N5CCN(CC6CC6)CC5)CC4)cc3OC)nc2N1C(C)C [Volasertib]
active: [5] 0.631 | [2] 0.791 | [6] 0.748

Looked up by structure from above, two records:
COc1cccc2c1C(=O)c1c(O)c3c(c(O)c1C2=O)C[C@@](O)(C(=O)CO)C[C@@H]3O[C@H]1C[C@H](N)[C@@H](O)[C@H](C)O1.Cl [Epirubicin hydrochloride]
active: [5] 0.673 | [1] 0.517 | [6] 0.996 | [7] 0.674 | [3] 0.98 | [8] 0.977 | [4] 0.971

CC[C@@H]1C(=O)N(C)c2cnc(Nc3ccc(C(=O)N[C@H]4CC[C@H](N5CCN(CC6CC6)CC5)CC4)cc3OC)nc2N1C(C)C [Volasertib]
active: [5] 0.631 | [2] 0.791 | [6] 0.748

Following part.

Nc1ccn([C@@H]2O[C@H](CO)[C@@H](O)[C@@H]2O)c(=O)n1 [Cytarabine]
active: [5] 1 | [9] 0.993 | [2] 0.838 | [6] 0.741 | [7] 0.736 | [3] 1 | [8] 0.989 | [4] 0.692

CC(C)C[C@H](NC(=O)CNC(=O)c1cc(Cl)ccc1Cl)B(O)O [Ixazomib]
active: [5] 0.999 | [9] 0.994 | [1] 0.918 | [2] 0.964 | [6] 0.99 | [7] 0.995 | [3] 1 | [8] 0.944 | [4] 0.994

Cn1ncnc1[C@H]1C2=c3c(cc(F)cc3=N[C@@H]1c1ccc(F)cc1)C(=O)NN2 [Talazoparib]
active: [1] 0.882 | [3] 0.67 | [4] 0.707
